# Source: publication PMC12032772
# B1: Hypoxia up-regulated protein 1 (protein, UniProt Q9Y4L1 33-999)
# chain: LAVMSVDLGSESMKVAIVKPGVPMEIVLNKESRRKTPVIVTLKENERFFGDSAASMAIKNPKATLRYFQHLLGKQADNPHVALYQARFPEHELTFDPQRQTVHFQISSQLQFSPEEVLGMVLNYSRSLAEDFAEQPIKDAVITVPVFFNQAERRAVLQAARMAGLKVLQLINDNTATALSYGVFRRKDINTTAQNIMFYDMGSGSTVCTIVTYQMVKTKEAGMQPQLQIRGVGFDRTLGGLEMELRLRERLAGLFNEQRKGQRAKDVRENPRAMAKLLREANRLKTVLSANADHMAQIEGLMDDVDFKAKVTRVEFEELCADLFERVPGPVQQALQSAEMSLDEIEQVILVGGATRVPRVQEVLLKAVGKEELGKNINADEAAAMGAVYQAAALSKAFKVKPFVVRDAVVYPILVEFTREVEEEPGIHSLKHNKRVLFSRMGPYPQRKVITFNRYSHDFNFHINYGDLGFLGPEDLRVFGSQNLTTVKLKGVGDSFKKYPDYESKGIKAHFNLDESGVLSLDRVESVFETLVEDSAEEESTLTKLGNTISSLFGGGTTPDAKENGTDTVQEEEESPAEGSKDEPGEQVELKEEAEAPVEDGSQPPPPEPKGDATPEGEKATEKENGDKSEAQKPSEKAEAGPEGVAPAPEGEKKQKPARKRRMVEEIGVELVVLDLPDLPEDKLAQSVQKLQDLTLRDLEKQEREKAANSLEAFIFETQDKLYQPEYQEVSTEEQREEISGKLSAASTWLEDEGVGATTVMLKEKLAELRKLCQGLFFRVEERKKWPERLSALDNLLNHSSMFLKGARLIPEMDQIFTEVEMTTLEKVINETWAWKNATLAEQAKLPATEKPVLLSKDIEAKMMALDREVQYLLNKAKFTKPRPRPKDKNGTRAEPPLNASASDQGEKVIPPAGQTEDAEPISEPEKVETGSEPGDTEPLELGGPGAEPEQKEQSTGQKRPLKNDEL
# B2: DnaJ homolog subfamily C member 3 (protein, UniProt Q13217 32-504)
# chain: GVNADVEKHLELGKKLLAAGQLADALSQFHAAVDGDPDNYIAYYRRATVFLAMGKSKAALPDLTKVIQLKMDFTAARLQRGHLLLKQGKLDEAEDDFKKVLKSNPSENEEKEAQSQLIKSDEMQRLRSQALNAFGSGDYTAAIAFLDKILEVCVWDAELRELRAECFIKEGEPRKAISDLKAASKLKNDNTEAFYKISTLYYQLGDHELSLSEVRECLKLDQDHKRCFAHYKQVKKLNKLIESAEELIRDGRYTDATSKYESVMKTEPSIAEYTVRSKERICHCFSKDEKPVEAIRVCSEVLQMEPDNVNALKDRAEAYLIEEMYDEAIQDYETAQEHNENDQQIREGLEKAQRLLKQSQKRDYYKILGVKRNAKKQEIIKAYRKLALQWHPDNFQNEEEKKKAEKKFIDIAAAKEVLSDPEMRKKFDDGEDPLDAESQQGGGGNPFHRSWNSWQGFNPFSSGGPFRFKFHFN
# B3: PDIA6 (protein, UniProt Q15084 20-440)
# chain: LYSSSDDVIELTPSNFNREVIQSDSLWLVEFYAPWCGHCQRLTPEWKKAATALKDVVKVGAVDADKHHSLGGQYGVQGFPTIKIFGSNKNRPEDYQGGRTGEAIVDAALSALRQLVKDRLGGRSGGYSSGKQGRSDSSSKKDVIELTDDSFDKNVLDSEDVWMVEFYAPWCGHCKNLEPEWAAAASEVKEQTKGKVKLAAVDATVNQVLASRYGIRGFPTIKIFQKGESPVDYDGGRTRSDIVSRALDLFSDNAPPPELLEIINEDIAKRTCEEHQLCVVAVLPHILDTGAAGRNSYLEVLLKLADKYKKKMWGWLWTEAGAQSELETALGIGGFGYPAMAAINARKMKFALLKGSFSEQGINEFLRELSFGRGSTAPVGGGAFPTIVEREPWDGRDGELPVEDDIDLSDVELDDLGKDEL
# B4: ERO1 A (protein, UniProt Q96HE7 24-468)
# chain: EEQPPETAAQRCFCQVSGYLDDCTCDVETIDRFNNYRLFPRLQKLLESDYFRYYKVNLKRPCPFWNDISQCGRRDCAVKPCQSDEVPDGIKSASYKYSEEANNLIEECEQAERLGAVDESLSEETQKAVLQWTKHDDSSDNFCEADDIQSPEAEYVDLLLNPERYTGYKGPDAWKIWNVIYEENCFKPQTIKRPLNPLASGQGTSEENTFYSWLEGLCVEKRAFYRLISGLHASINVHLSARYLLQETWLEKKWGHNITEFQQRFDGILTEGEGPRRLKNLYFLYLIELRALSKVLPFFERPDFQLFTGNKIQDEENKMLLLEILHEIKSFPLHFDENSFFAGDKKEAHKLKEDFRLHFRNISRIMDCVGCFKCRLWGKLQTQGLGTALKILFSEKLIANMPESGPSYEFHLTRQEIVSLFNAFGRISTSVKELENFRNLLQNIH
# B5: PRXV (protein, UniProt P30044 53-214)
# chain: MAPIKVGDAIPAVEVFEGEPGNKVNLAELFKGKKGVLFGVPGAFTPGCSKTHLPGFVEQAEALKAKGVQVVACLSVNDAFVTGEWGRAHKAEGKVRLLADPTGAFGKETDLLLDDSLVSIFGNRRLKRFSMVVQDGIVKALNVEPDGTGLTCSLAPNIISQL
# B6: LMAN1 (protein, UniProt P49257 31-510)
# chain: DGVGGDPAVALPHRRFEYKYSFKGPHLVQSDGTVPFWAHAGNAIPSSDQIRVAPSLKSQRGSVWTKTKAAFENWEVEVTFRVTGRGRIGADGLAIWYAENQGLEGPVFGSADLWNGVGIFFDSFDNDGKKNNPAIVIIGNNGQIHYDHQNDGASQALASCQRDFRNKPYPVRAKITYYQNTLTVMINNGFTPDKNDYEFCAKVENMIIPAQGHFGISAATGGLADDHDVLSFLTFQLTEPGKEPPTPDKEISEKEKEKYQEEFEHFQQELDKKKEEFQKGHPDLQGQPAEEIFESVGDRELRQVFEGQNRIHLEIKQLNRQLDMILDEQRRYVSSLTEEISKRGAGMPGQHGQITQQELDTVVKTQHEILRQVNEMKNSMSETVRLVSGMQHPGSAGGVYETTQHFIDIKEHLHIVKRDIDNLVQRNMPSNEKPKCPELPPFPSCLSTVHFIIFVVVQTVLFIGYIMYRSQQEAAAKKFF
# B7: Mannosyl-oligosaccharide glucosidase (enzyme, UniProt Q13724 1-837)
# chain: MARGERRRRAVPAEGVRTAERAARGGPGRRDGRGGGPRSTAGGVALAVVVLSLALGMSGRWVLAWYRARRAVTLHSAPPVLPADSSSPAVAPDLFWGTYRPHVYFGMKTRSPKPLLTGLMWAQQGTTPGTPKLRHTCEQGDGVGPYGWEFHDGLSFGRQHIQDGALRLTTEFVKRPGGQHGGDWSWRVTVEPQDSGTSALPLVSLFFYVVTDGKEVLLPEVGAKGQLKFISGHTSELGDFRFTLLPPTSPGDTAPKYGSYNVFWTSNPGLPLLTEMVKSRLNSWFQHRPPGAPPERYLGLPGSLKWEDRGPSGQGQGQFLIQQVTLKIPISIEFVFESGSAQAGGNQALPRLAGSLLTQALESHAEGFRERFEKTFQLKEKGLSSGEQVLGQAALSGLLGGIGYFYGQGLVLPDIGVEGSEQKVDPALFPPVPLFTAVPSRSFFPRGFLWDEGFHQLVVQRWDPSLTREALGHWLGLLNADGWIGREQILGDEARARVPPEFLVQRAVHANPPTLLLPVAHMLEVGDPDDLAFLRKALPRLHAWFSWLHQSQAGPLPLSYRWRGRDPALPTLLNPKTLPSGLDDYPRASHPSVTERHLDLRCWVALGARVLTRLAEHLGEAEVAAELGPLAASLEAAESLDELHWAPELGVFADFGNHTKAVQLKPRPPQGLVRVVGRPQPQLQYVDALGYVSLFPLLLRLLDPTSSRLGPLLDILADSRHLWSPFGLRSLAASSSFYGQRNSEHDPPYWRGAVWLNVNYLALGALHHYGHLEGPHQARAAKLHGELRANVVGNVWRQYQATGFLWEQYSDRDGRGMGCRPFHGWTSLVLLAMAEDY
# Biological target: H6PD-BirA*-HA fusion protein
# Test: proximity labelling; BioID: MDA-MB-231 clone stably expressing H6PD-BirA*-HA, 50 µM biotin for 72 h; RIPA lysate, streptavidin magnetic beads, label-free quantitative MS, compared to parental MDA-MB-231 cells
row,Binder,binding
1,B1,binds
2,B2,binds
3,B3,binds
4,B4,binds
5,B5,binds
6,B6,binds
7,B7,binds

# No constants are given. Whether binding was seen depends on the method and setting. Binding seen in cells or lysates may run through a third protein. Here binding means that the protein was enriched with, or labelled near, the bait; the list need not be complete. Tags and fused reporters may be left off the sequences shown.
